From US20230416361A1
Numbering of substitutions follows the chain as printed. In names and notes the source's numbering stands. No constants are given. Whether binding was seen depends on the method and setting. Some entries that bind do so weakly or less than the wild type.

The chains behind the UniProt entries cited, without tags or fusion partners. Residues count along the entry.
UniProt Q8TD46, residues 29-265: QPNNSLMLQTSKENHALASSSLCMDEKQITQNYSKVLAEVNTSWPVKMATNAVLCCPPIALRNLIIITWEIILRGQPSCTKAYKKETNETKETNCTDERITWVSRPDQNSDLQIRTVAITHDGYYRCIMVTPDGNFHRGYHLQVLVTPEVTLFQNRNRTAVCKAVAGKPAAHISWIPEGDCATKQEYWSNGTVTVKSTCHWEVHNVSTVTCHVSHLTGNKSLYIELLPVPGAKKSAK

T1: cyno CD200R expressed on HEK293T cells (cynomolgus) (UniProt G7NZT0)
T1 sequence: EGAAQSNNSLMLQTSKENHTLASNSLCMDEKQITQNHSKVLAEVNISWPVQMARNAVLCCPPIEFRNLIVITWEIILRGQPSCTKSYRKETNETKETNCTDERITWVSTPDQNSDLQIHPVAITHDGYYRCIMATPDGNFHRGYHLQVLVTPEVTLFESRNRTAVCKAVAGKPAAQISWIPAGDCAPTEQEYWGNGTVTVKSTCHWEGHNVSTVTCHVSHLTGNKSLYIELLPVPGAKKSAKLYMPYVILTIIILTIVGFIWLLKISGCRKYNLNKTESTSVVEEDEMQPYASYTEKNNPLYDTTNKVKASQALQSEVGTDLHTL

B1: hu2131_v20 (antibody, human IgG1, V domains shown)
VH: QVQLVQSGAEVKKPGASVKVSCKASGHTFTSYWMHWVRQAPGQGLEWMGNIYPGSGSINYDEKFQGRVTMTADTSTSTVYMELSSLRSEDTAVYYCLTMTGTSWGRGTLVTVSS
VL: DIQMTQSPSSLSVSVGDRVTITCQASQGTPINLHWFQQKPGKAPKLLISGASNLEDGVPSRFSGSGSGTEFTFTISSLQPEDAATYYCLQFTYIPWTFGQGTKLEIK
B2: anti-CD200R antibody clone 21.3.1 (mIgG1k isotype) (antibody, V domains shown)
VH: QVQLQQPGSELVRPGASVKLSCKASGHTFTSYWMHWVKQRPGQGLEWIGNIYPGSGSINYDEKFKSKAKLTVDTSSRTAYMQLSSLTSEDSAVYYCLTMTGTSWGQGTLVTVSA
VL: DVQMIQSPSSLSASLGDIVTMTCQASQGTPINLHWFQQKPGKAPKLLISGASNLEDGVPSRFSGSRYGTAFTLTISSLEDEDMATYFCLQFTYIPWTFGGGTKLEIKR
B3: 2131_chimera (antibody, V domains shown)
VH: B2 VH
VL: DVQMIQSPSSLSASLGDIVTMTCQASQGTPINLHWFQQKPGKAPKLLISGASNLEDGVPSRFSGSRYGTAFTLTISSLEDEDMATYFCLQFTYIPWTFGGGTKLEIK
B4: hu2131_Q1E_M99G hIgG1k P238D (antibody, V domains shown)
VH: B1 VH with Q1E, M99G
VL: DIQMTQSPSSLSVSVGDRVTITCQASQGTPINLHWFQQKPGKAPKLLISGASNLESGVPSRFSGSGSGTEFTFTISSLQPEDAATYYCLQFTYIPWTFGQGTKLEIKR
B5: hu2131_v1 (antibody, human IgG1, V domains shown)
VH: QVQLVQSGSELKKPGASVKLSCKASGHTFTSYWMHWVKQAPGQGLEWIGNIYPGSGSINYDEKFQGRATLTVDTSTRTAYMELSSLRSEDSAVYYCLTMTGTSWGRGTLVTVSS
VL: B3 VL with I5T, A13V, L15V, I18R, E79Q, M83I, G100Q
B6: hu2131_v2 (antibody, human IgG1, V domains shown)
VH: B5 VH
VL: B1 VL with I2V, I21M, G66R, S67Y, E70A, F73L, A83I, Y87F
B7: hu2131_v3 (antibody, human IgG1, V domains shown)
VH: B5 VH
VL: B1 VL with I2V, G66R, S67Y, E70D, A83I, Y87F
B8: hu2131_v4 (antibody, human IgG1, V domains shown)
VH: B5 VH
VL: B1 VL with E70D, A83I
B9: hu2131_v5 (antibody, human IgG1, V domains shown)
VH: B5 VH
VL: B1 VL
B10: hu2131_v6 (antibody, human IgG1, V domains shown)
VH: B5 VH with S9A, L11V, S91T
VL: B3 VL with I5T, A13V, L15V, I18R, E79Q, M83I, G100Q
B11: hu2131_v7 (antibody, human IgG1, V domains shown)
VH: B5 VH with S9A, L11V, S91T
VL: B1 VL with I2V, I21M, G66R, S67Y, E70A, F73L, A83I, Y87F
B12: hu2131_v8 (antibody, human IgG1, V domains shown)
VH: B5 VH with S9A, L11V, S91T
VL: B1 VL with I2V, G66R, S67Y, E70D, A83I, Y87F
B13: hu2131_v9 (antibody, human IgG1, V domains shown)
VH: B5 VH with S9A, L11V, S91T
VL: B1 VL with E70D, A83I
B14: hu2131_v10 (antibody, human IgG1, V domains shown)
VH: B5 VH with S9A, L11V, S91T
VL: B1 VL
B15: hu2131_v11 (antibody, human IgG1, V domains shown)
VH: B1 VH with M48I, A72V, V79A
VL: B3 VL with I5T, A13V, L15V, I18R, E79Q, M83I, G100Q
B16: hu2131_v12 (antibody, human IgG1, V domains shown)
VH: B1 VH with M48I, A72V, V79A
VL: B1 VL with I2V, I21M, G66R, S67Y, E70A, F73L, A83I, Y87F
B17: hu2131_v13 (antibody, human IgG1, V domains shown)
VH: B1 VH with M48I, A72V, V79A
VL: B1 VL with I2V, G66R, S67Y, E70D, A83I, Y87F
B18: hu2131_v14 (antibody, human IgG1, V domains shown)
VH: B1 VH with M48I, A72V, V79A
VL: B1 VL with E70D, A83I
B19: hu2131_v15 (antibody, human IgG1, V domains shown)
VH: B1 VH with M48I, A72V, V79A
VL: B1 VL
B20: hu2131_v16 (antibody, human IgG1, V domains shown)
VH: B1 VH
VL: B3 VL with I5T, A13V, L15V, I18R, E79Q, M83I, G100Q
B21: hu2131_v17 (antibody, human IgG1, V domains shown)
VH: B1 VH
VL: B1 VL with I2V, I21M, G66R, S67Y, E70A, F73L, A83I, Y87F
B22: hu2131_v18 (antibody, human IgG1, V domains shown)
VH: B1 VH
VL: B1 VL with I2V, G66R, S67Y, E70D, A83I, Y87F
B23: hu2131_v19 (antibody, human IgG1, V domains shown)
VH: B1 VH
VL: B1 VL with E70D, A83I

These binders were tested against T1, cyno CD200R expressed on HEK293T cells (cynomolgus) (assay: flow cytometry on transiently transfected HEK293T cells, antibody at 10 ug/ml).
For B1, the binding was “binds”. In the case of B2, the binding is reported as “binds”. For B3, the binding was “binds”. B4 was tested, and the binding was “binds”.

What follows are binders tested against monomeric soluble human CD200R extracellular domain (human) (UniProt Q8TD46) (assay: BLI (Octet), 25 C).
With B5 the binding was “binds”. With B6 the binding was “binds”. B7 was tested, and the binding was “binds”. In the case of B8, the binding is reported as “binds”. In the case of B9, the binding is reported as “binds”. B10 was tested, and the binding was “binds”. With B11 the binding was “binds”. In the case of B12, the binding is reported as “binds”. B13 was tested, and the binding was “binds”. With B14 the binding was “binds”. B15 was tested, and the binding was “binds”. In the case of B16, the binding is reported as “binds”. B17 was tested, and the binding was “binds”. In the case of B18, the binding is reported as “binds”. With B19 the binding was “binds”. For B20, the binding was “binds”. With B21 the binding was “binds”. For B22, the binding was “binds”. B23 was tested, and the binding was “binds”. In the case of B1, the binding is reported as “binds”.
